The target in test [1] is T1, YokF residues 216-296 with HA2x (TNM-HA) (B. subtilis) (UniProt O32001).
T1 sequence: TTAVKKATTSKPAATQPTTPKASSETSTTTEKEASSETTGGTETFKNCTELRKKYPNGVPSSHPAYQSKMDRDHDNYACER
As to the kind of experiment: co-IP.

Test [2] deals with T2, FlhA-HA (FlhA with HAx2) (B. subtilis) (UniProt P35620).
T2 sequence: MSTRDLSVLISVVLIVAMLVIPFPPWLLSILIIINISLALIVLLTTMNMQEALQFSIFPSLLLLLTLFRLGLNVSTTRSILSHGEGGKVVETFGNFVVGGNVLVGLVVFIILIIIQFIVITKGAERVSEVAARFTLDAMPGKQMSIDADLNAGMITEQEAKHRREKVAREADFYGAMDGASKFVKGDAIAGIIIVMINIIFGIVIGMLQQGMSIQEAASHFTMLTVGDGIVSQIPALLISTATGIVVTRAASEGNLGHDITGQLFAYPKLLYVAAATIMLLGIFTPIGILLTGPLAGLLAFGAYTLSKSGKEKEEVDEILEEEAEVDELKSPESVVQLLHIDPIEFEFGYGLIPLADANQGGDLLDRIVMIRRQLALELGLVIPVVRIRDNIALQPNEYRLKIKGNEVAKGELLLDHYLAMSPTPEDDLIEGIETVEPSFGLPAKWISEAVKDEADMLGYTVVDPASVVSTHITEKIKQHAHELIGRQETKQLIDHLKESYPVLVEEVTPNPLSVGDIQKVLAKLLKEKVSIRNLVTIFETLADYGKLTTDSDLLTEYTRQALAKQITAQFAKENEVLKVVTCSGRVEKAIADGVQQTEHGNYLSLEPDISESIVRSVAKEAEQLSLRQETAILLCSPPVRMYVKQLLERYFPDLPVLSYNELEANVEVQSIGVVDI
As to the kind of experiment: co-IP.

In article doi:10.1101/2025.10.26.684598 one finds binding data, which are given here for 2 molecules.

No constants are given. Whether binding was seen depends on the method and setting. In cells and extracts the contact can be indirect. Some binding calls cover weakened binding; strength is not graded here. Sequences can lack the tags named with a protein.

B1: YokF residues 1-215 with FLAG2x (TNase-FLAG) (domain or fragment, UniProt O32001 20-215)
chain: CSSNDSEKVSTEKETPQASTDVEKKTEQKESTKEKTADKSKEKDKKELVDVTLDRAVDGDTIKVTYNGNVDTVRYLLIDTPETKKPNSCVQPYGEDASKRNKELVNSGKLQLEFDKGDRRDKYGRLLAYVYVDGKSVQETLLKEGLARVAYVYEPNTKYIDQFKKDEQEAKSEKLSIWSKNGYVTDRGFNGCVKEK
Turning to B1, the binding result in test [1] is listed as “binds”.

B2: YokF (native, in B. subtilis BSB1) (enzyme, UniProt O32001 20-296)
chain: CSSNDSEKVSTEKETPQASTDVEKKTEQKESTKEKTADKSKEKDKKELVDVTLDRAVDGDTIKVTYNGNVDTVRYLLIDTPETKKPNSCVQPYGEDASKRNKELVNSGKLQLEFDKGDRRDKYGRLLAYVYVDGKSVQETLLKEGLARVAYVYEPNTKYIDQFKKDEQEAKSEKLSIWSKNGYVTDRGFNGCVKEKTTAVKKATTSKPAATQPTTPKASSETSTTTEKEASSETTGGTETFKNCTELRKKYPNGVPSSHPAYQSKMDRDHDNYACER
Regarding B2, in test [2], the binding entry was “binds”.
